# Test results: the supplement of paper PMC8728848
# Some of the results follow.
# B1: Awp1 (Candida glabrata) (protein)
# chain: MSLITIFAFLIKATLVLSLDILTPTTLTGDQTFNEDVSVVSSLTLNDGSQYLFNNLLQIAPSSASVTANALAAVSVFTFSLPPSSSLSNSGTLIISNSNTGPSTEQHIVITPNVMANTGTITLSLAHTNTDSSSTLIIDPVTFYNTGTINYESIGSETNDPSLTGNILSIGSSGRTLQNLGTINLNAANSYYLLGTITENSGSINVQKGFLYVNALDFIGNTINLSTTTALAFISPVSQVVRVRGVFFGNIIASVGSSGTFSYNTQTGILTVTTNGVYSYDIGCGYNPALMSGQQETLSFQGNPYDTFLVLVNQPIPSDLTCAAVSSSITPSSSVEPSSSVVPSSSVEPSSSVEPSSSVEPSSSVEPSSSVEPSSSVEPSSSVEPSSSVEPSSSVEPSSSVEPSSSVEPSSSVEPSSSVEPSSSVEPSSSVEPSSSVEPSSSVEPSSSVEPSSSVEPSSLIVPSSSVEPSSSVLPSSSVVPSSSVEPSTPPIPSSSVEPSSSVVPSSPAVPSSSVEPSTPPIPSSSVVSASVFDTSSTLPSSPSVPPSSVSPSTISTPSSSAAPSSFCPTCVSSGTPPAPSSSAIVPTSSAGGGNGGDNREPGAAGQPGAAGQPGAAGQPGAAGQPGAAGQPGAAGQPGAAGQPGAAGQPGAAGQPGAAGQPGAGFGVGSEQPTPGAGAGSGSADGNQSGTGSGTGNGQQGSGQAGSGQAGSGQEGSGQAGSGQAGSGQAGSGQAGSGQAGLDNTASGQSEGGQASAMDGDQSGRDGQSNSGSLLQPNAQQGTGSGTGSDIGADQASGESPGQIGDAQPGSGTDQSSGRHSLAAEARTSQSHSLAADARTRSTTRQTSVIAPDTAPGTASGTAPGTAPGTAVVTTFHGCGTVNHKGMINILLALALLVLL
# Key:
# Test in all cases: glycan array binding signal (z-score within array); higher = stronger binding
# Details in all cases: glycan notation: IUPAC condensed, linker removed
# [1] = biological target: Neu5Ac(a2-3)Gal(b1-3)GlcNAc6S
# Outline: (§1)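 Arrays were curated from the Consortium for Functional Glycomics database, 3228 in total, and kept only where the protein sequence was available. Binding is expressed as a within-array Z-score. This score was averaged across arrays of the same protein sequence at different concentrations or buffers and across linkers, and negative values can be read as non-binding.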
# [2] = biological target: Neu5Ac(a2-3)Gal(b1-3)[Fuc(a1-4)]GlcNAc
# Outline: as §1
# [3] = biological target: Neu5Ac(a2-3)Gal(b1-3)[Fuc(a1-4)]GlcNAc(b1-3)Gal(b1-3)[Fuc(a1-4)]GlcNAc
# Outline: as §1
# [4] = biological target: Neu5Ac(a2-3)Gal(b1-3)[Fuc(a1-4)]GlcNAc(b1-3)Gal(b1-4)[Fuc(a1-3)]GlcNAc
# Outline: as §1
# [5] = biological target: Neu5Ac(a2-3)Gal(b1-3)[GlcNAc(b1-6)]GalNAc
# Outline: as §1
# [6] = biological target: Neu5Ac(a2-3)Gal(b1-3)[Neu5Ac(a2-6)]GalNAc
# Outline: as §1
# [7] = biological target: Neu5Ac(a2-3)Gal(b1-3)[Neu5Ac(a2-6)]GlcNAc(b1-3)[Fuc(a1-3)[Gal(b1-4)]GlcNAc(b1-6)]Gal(b1-4)Glc
# Outline: as §1
# [8] = biological target: Neu5Ac(a2-3)Gal(b1-3)]Neu5Ac(a2-3)Gal(b1-4)]GlcNAc
# Outline: as §1
# [9] = biological target: Neu5Ac(a2-3)Gal(b1-4)Glc
# Outline: as §1
# [10] = biological target: Neu5Ac(a2-3)Gal(b1-4)GlcNAc
# Outline: as §1
# [11] = biological target: Neu5Ac(a2-3)Gal(b1-4)GlcNAc(b1-2)Man
# Outline: as §1
# [12] = biological target: Neu5Ac(a2-3)Gal(b1-4)GlcNAc(b1-2)Man(a1-3)[GlcNAc(b1-4)][Neu5Ac(a2-3)Gal(b1-4)GlcNAc(b1-2)Man(a1-6)]Man(b1-4)GlcNAc(b1-4)GlcNAc
# Outline: as §1
# [13] = biological target: Neu5Ac(a2-3)Gal(b1-4)GlcNAc(b1-2)Man(a1-3)[Neu5Ac(a2-3)Gal(b1-4)GlcNAc(b1-2)Man(a1-6)]Man(b1-4)GlcNAc(b1-4)GlcNAc
# Outline: as §1
# [14] = biological target: Neu5Ac(a2-3)Gal(b1-4)GlcNAc(b1-2)Man(a1-3)[Neu5Ac(a2-3)Gal(b1-4)GlcNAc(b1-2)Man(a1-6)]Man(b1-4)GlcNAc(b1-4)[Fuc(a1-6)]GlcNAc
# Outline: as §1
# [15] = biological target: Neu5Ac(a2-3)Gal(b1-4)GlcNAc(b1-2)Man(a1-3)[Neu5Ac(a2-6)Gal(b1-4)GlcNAc(b1-2)Man(a1-6)]Man(b1-4)GlcNAc(b1-4)GlcNAc
# Outline: as §1
# [16] = biological target: Neu5Ac(a2-3)Gal(b1-4)GlcNAc(b1-2)[Neu5Ac(a2-3)Gal(b1-4)GlcNAc(b1-4)]Man(a1-3)[GlcNAc(b1-4)][Neu5Ac(a2-3)Gal(b1-4)GlcNAc(b1-2)[Neu5Ac(a2-3)Gal(b1-4)GlcNAc(b1-6)]Man(a1-6)]Man(b1-4)GlcNAc(b1-4)GlcNAc
# Outline: as §1
# [17] = biological target: Neu5Ac(a2-3)Gal(b1-4)GlcNAc(b1-2)[Neu5Ac(a2-3)Gal(b1-4)GlcNAc(b1-4)]Man(a1-3)[GlcNAc(b1-4)][Neu5Ac(a2-3)Gal(b1-4)GlcNAc(b1-4)Man(a1-6)]Man(b1-4)GlcNAc(b1-4)GlcNAc
# Outline: as §1
# [18] = biological target: Neu5Ac(a2-3)Gal(b1-4)GlcNAc(b1-2)[Neu5Ac(a2-3)Gal(b1-4)GlcNAc(b1-6)]Man(a1-6)[Neu5Ac(a2-3)Gal(b1-4)GlcNAc(b1-2)Man(a1-3)][GlcNAc(b1-4)]Man(b1-4)GlcNAc(b1-4)GlcNAc
# Outline: as §1
# [19] = biological target: Neu5Ac(a2-3)Gal(b1-4)GlcNAc(b1-3)Gal
# Outline: as §1
# [20] = biological target: Neu5Ac(a2-3)Gal(b1-4)GlcNAc(b1-3)Gal(b1-3)GlcNAc
# Outline: as §1
# [21] = biological target: Neu5Ac(a2-3)Gal(b1-4)GlcNAc(b1-3)Gal(b1-4)GlcNAc
# Outline: as §1
# [22] = biological target: Neu5Ac(a2-3)Gal(b1-4)GlcNAc(b1-3)Gal(b1-4)GlcNAc(b1-2)Man(a1-3)[Neu5Ac(a2-3)Gal(b1-4)GlcNAc(b1-3)Gal(b1-4)GlcNAc(b1-2)Man(a1-6)]Man(b1-4)GlcNAc(b1-4)GlcNAc
# Outline: as §1
# [23] = biological target: Neu5Ac(a2-3)Gal(b1-4)GlcNAc(b1-3)Gal(b1-4)GlcNAc(b1-3)Gal(b1-4)GlcNAc
# Outline: as §1
# [24] = biological target: Neu5Ac(a2-3)Gal(b1-4)GlcNAc(b1-3)Gal(b1-4)GlcNAc(b1-3)Gal(b1-4)GlcNAc(b1-2)Man(a1-3)[Neu5Ac(a2-3)Gal(b1-4)GlcNAc(b1-3)Gal(b1-4)GlcNAc(b1-3)Gal(b1-4)GlcNAc(b1-2)Man(a1-6)]GalNAc
# Outline: as §1
# [25] = biological target: Neu5Ac(a2-3)Gal(b1-4)GlcNAc(b1-3)Gal(b1-4)GlcNAc(b1-3)GalNAc
# Outline: as §1
# [26] = biological target: Neu5Ac(a2-3)Gal(b1-4)GlcNAc(b1-3)Gal(b1-4)GlcNAc(b1-3)[Neu5Ac(a2-3)Gal(b1-4)GlcNAc(b1-3)Gal(b1-4)GlcNAc(b1-6)]GalNAc
# Outline: as §1
# [27] = biological target: Neu5Ac(a2-3)Gal(b1-4)GlcNAc(b1-3)Gal(b1-4)GlcNAc(b1-6)[Gal(b1-3)]GalNAc
# Outline: as §1
# [28] = biological target: Neu5Ac(a2-3)Gal(b1-4)GlcNAc(b1-3)Gal(b1-4)[Fuc(a1-3)]GlcNAc
# Outline: as §1
# [29] = biological target: Neu5Ac(a2-3)Gal(b1-4)GlcNAc(b1-3)GalNAc
# Outline: as §1
# [30] = biological target: Neu5Ac(a2-3)Gal(b1-4)GlcNAc(b1-3)[Neu5Ac(a2-3)Gal(b1-4)GlcNAc(b1-6)]GalNAc
# Outline: as §1
binder,measurement,setting,value
B1,glycan array binding signal (z-score),[1],-1.55
same,glycan array binding signal (z-score),[2],1.5
same,glycan array binding signal (z-score),[3],1.6
same,glycan array binding signal (z-score),[4],0.19
same,glycan array binding signal (z-score),[5],-3.04
same,glycan array binding signal (z-score),[6],0.297
same,glycan array binding signal (z-score),[7],2.06
same,glycan array binding signal (z-score),[8],0.442
same,glycan array binding signal (z-score),[9],0.998
same,glycan array binding signal (z-score),[10],0.13
same,glycan array binding signal (z-score),[11],-0.144
same,glycan array binding signal (z-score),[12],0.483
same,glycan array binding signal (z-score),[13],-0.63
same,glycan array binding signal (z-score),[14],-0.775
same,glycan array binding signal (z-score),[15],0.387
same,glycan array binding signal (z-score),[16],-1.79
same,glycan array binding signal (z-score),[17],-0.764
same,glycan array binding signal (z-score),[18],0.49
same,glycan array binding signal (z-score),[19],0.691
same,glycan array binding signal (z-score),[20],-0.576
same,glycan array binding signal (z-score),[21],0.526
same,glycan array binding signal (z-score),[22],-1.91
same,glycan array binding signal (z-score),[23],-0.761
same,glycan array binding signal (z-score),[24],1.61
same,glycan array binding signal (z-score),[25],0.889
same,glycan array binding signal (z-score),[26],-0.297
same,glycan array binding signal (z-score),[27],-1.47
same,glycan array binding signal (z-score),[28],1.81
same,glycan array binding signal (z-score),[29],0.493
same,glycan array binding signal (z-score),[30],0.697

# 2 entries from above, tab-delimited:
binder	measurement	setting	value
B1	glycan array binding signal (z-score)	[4]	0.19
same	glycan array binding signal (z-score)	[30]	0.697
